Results as given in the supplement of paper PMC12823440, “Inhibitors supercharge kinase turnover through native proteolytic circuits” (Nature, 2025).
Structures can show the parent of a compound that is named as a salt. Some of the results follow. The calls rarely recur for the same compound in another form.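 Kinases, fused to nanoluciferase, were expressed in K562 cells; luminescence was measured every 4 h from 2 to 18 h as percent of control (DMSO = 100%, positive control = 0%). A time point is decreased if signal falls significantly (2 sigma). Hits were called by the authors by a rule that is not shown; the count of time points alone does not decide it.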

Chains of the proteins cited; added tags and fusions are not shown. Lines headed by an entry give the natural chain unless they say otherwise; changes in a name come on top.
UniProt P07949, whole entry, looked up: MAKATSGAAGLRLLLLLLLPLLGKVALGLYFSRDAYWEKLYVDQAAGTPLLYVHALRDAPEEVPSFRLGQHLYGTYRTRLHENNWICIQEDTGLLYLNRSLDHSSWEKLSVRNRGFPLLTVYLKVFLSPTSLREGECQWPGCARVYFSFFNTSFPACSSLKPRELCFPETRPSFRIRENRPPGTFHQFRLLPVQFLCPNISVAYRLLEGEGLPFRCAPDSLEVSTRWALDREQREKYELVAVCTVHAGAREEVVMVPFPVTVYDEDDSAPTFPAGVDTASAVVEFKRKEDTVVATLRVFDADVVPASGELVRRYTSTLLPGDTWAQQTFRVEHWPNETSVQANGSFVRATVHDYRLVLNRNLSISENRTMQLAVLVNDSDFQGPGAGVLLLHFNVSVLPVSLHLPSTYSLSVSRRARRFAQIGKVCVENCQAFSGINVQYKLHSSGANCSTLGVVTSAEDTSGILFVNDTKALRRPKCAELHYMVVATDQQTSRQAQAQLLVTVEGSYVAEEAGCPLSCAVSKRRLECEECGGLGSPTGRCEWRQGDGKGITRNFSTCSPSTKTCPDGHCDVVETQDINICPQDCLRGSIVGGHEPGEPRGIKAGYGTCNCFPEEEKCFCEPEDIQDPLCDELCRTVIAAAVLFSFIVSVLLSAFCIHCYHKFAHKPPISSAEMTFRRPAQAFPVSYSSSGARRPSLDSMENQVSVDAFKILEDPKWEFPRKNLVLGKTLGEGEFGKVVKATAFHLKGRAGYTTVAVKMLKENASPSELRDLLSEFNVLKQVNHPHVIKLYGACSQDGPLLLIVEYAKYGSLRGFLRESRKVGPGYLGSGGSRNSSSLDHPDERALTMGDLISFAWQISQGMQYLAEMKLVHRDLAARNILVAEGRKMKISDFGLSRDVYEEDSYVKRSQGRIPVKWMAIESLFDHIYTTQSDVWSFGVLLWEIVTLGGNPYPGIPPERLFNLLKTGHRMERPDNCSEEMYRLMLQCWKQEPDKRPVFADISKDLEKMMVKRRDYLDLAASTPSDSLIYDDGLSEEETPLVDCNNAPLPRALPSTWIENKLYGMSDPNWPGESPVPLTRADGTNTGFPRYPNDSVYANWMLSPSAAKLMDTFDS
UniProt P07949, whole entry M918T, looked up: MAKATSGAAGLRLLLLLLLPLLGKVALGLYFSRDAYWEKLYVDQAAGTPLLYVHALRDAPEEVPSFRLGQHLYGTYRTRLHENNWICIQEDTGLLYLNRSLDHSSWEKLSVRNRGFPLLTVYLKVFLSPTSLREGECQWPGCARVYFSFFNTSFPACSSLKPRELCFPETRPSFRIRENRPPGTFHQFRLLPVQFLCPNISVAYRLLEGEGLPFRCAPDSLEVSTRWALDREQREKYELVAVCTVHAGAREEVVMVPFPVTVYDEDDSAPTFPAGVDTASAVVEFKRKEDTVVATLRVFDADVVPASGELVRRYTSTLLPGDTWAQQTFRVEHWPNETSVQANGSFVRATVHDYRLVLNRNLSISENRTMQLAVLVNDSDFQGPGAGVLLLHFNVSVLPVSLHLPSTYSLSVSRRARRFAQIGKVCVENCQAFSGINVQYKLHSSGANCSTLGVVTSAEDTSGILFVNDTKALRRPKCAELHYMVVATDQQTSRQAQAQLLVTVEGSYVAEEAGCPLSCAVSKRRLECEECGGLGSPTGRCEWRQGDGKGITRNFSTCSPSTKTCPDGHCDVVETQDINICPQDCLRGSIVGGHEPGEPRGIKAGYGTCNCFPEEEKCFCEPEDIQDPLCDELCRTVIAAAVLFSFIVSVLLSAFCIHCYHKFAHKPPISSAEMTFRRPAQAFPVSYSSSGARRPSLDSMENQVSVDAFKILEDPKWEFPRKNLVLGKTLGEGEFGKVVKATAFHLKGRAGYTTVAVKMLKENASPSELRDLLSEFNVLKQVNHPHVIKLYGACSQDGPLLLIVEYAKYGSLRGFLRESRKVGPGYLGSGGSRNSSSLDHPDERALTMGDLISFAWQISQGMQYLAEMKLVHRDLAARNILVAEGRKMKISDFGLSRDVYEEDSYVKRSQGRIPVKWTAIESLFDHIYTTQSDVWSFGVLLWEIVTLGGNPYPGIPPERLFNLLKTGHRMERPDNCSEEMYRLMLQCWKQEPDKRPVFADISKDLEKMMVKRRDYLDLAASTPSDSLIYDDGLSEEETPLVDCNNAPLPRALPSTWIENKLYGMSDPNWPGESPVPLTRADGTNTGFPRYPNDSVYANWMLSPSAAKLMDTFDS
UniProt Q01974, whole entry: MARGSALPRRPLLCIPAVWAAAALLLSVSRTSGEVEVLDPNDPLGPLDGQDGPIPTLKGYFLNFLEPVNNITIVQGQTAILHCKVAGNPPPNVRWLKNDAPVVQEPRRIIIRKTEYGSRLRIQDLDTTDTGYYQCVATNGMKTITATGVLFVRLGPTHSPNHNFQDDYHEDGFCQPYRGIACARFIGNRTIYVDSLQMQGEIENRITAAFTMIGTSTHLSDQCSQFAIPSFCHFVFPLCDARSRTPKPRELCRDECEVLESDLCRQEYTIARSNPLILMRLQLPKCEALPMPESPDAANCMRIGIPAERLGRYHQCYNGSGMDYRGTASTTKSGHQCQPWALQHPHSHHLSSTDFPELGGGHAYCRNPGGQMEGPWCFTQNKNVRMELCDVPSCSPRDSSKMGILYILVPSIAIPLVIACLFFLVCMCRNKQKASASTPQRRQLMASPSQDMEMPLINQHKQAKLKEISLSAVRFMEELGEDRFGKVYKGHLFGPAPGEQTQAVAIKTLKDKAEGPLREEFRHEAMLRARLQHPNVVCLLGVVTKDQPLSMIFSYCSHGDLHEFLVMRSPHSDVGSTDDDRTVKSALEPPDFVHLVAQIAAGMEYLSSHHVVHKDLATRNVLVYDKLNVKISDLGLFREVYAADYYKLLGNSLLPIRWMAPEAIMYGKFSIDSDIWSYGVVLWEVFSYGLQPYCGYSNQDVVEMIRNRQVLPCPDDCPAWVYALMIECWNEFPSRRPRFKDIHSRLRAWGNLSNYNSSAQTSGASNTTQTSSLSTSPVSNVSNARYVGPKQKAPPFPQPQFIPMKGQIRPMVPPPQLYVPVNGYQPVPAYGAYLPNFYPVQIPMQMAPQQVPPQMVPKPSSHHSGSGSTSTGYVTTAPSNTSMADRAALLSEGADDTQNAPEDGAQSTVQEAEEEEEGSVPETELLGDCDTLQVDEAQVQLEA
UniProt Q15418, whole entry: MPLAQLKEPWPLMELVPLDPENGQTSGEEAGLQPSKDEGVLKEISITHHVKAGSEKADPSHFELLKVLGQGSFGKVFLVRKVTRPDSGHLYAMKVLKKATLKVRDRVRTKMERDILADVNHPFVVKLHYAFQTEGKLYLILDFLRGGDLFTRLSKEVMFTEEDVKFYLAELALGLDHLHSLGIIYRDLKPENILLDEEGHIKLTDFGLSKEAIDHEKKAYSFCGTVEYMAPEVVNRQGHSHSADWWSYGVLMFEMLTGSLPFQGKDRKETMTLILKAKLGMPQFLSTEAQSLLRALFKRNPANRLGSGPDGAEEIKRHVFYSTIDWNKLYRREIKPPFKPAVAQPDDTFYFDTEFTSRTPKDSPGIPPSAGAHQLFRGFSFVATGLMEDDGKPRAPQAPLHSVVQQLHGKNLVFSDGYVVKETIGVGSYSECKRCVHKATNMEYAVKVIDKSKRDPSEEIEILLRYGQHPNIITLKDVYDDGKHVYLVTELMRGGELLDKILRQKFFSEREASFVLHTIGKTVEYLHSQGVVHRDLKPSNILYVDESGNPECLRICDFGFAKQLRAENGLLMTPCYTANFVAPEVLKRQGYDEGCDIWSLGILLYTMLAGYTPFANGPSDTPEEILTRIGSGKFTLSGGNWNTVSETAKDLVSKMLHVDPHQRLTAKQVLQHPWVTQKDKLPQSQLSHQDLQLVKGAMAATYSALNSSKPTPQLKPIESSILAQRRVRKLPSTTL
UniProt Q9Y6E0: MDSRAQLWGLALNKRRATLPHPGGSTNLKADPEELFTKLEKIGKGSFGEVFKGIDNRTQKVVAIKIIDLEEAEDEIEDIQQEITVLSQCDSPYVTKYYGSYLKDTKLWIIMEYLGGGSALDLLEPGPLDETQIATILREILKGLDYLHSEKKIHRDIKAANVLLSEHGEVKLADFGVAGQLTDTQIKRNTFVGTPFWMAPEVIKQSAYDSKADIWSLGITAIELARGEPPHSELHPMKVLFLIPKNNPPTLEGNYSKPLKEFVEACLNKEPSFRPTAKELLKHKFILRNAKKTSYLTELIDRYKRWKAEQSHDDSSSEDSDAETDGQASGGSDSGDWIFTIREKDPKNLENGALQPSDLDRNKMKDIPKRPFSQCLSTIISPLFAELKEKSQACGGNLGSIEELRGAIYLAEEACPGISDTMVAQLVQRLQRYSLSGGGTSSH
UniProt Q15208: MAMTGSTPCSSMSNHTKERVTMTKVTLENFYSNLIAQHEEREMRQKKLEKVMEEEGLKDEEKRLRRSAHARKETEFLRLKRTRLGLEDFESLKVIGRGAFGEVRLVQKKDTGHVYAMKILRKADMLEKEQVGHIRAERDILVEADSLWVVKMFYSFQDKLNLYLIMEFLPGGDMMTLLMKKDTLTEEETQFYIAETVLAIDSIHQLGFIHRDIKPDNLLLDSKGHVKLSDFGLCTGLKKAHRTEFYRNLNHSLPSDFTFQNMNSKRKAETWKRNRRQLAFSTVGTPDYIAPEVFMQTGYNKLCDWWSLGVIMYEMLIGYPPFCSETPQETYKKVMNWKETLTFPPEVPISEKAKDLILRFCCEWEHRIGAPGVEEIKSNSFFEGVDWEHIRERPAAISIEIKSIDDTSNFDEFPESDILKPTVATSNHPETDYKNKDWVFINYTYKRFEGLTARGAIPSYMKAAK
UniProt P42680: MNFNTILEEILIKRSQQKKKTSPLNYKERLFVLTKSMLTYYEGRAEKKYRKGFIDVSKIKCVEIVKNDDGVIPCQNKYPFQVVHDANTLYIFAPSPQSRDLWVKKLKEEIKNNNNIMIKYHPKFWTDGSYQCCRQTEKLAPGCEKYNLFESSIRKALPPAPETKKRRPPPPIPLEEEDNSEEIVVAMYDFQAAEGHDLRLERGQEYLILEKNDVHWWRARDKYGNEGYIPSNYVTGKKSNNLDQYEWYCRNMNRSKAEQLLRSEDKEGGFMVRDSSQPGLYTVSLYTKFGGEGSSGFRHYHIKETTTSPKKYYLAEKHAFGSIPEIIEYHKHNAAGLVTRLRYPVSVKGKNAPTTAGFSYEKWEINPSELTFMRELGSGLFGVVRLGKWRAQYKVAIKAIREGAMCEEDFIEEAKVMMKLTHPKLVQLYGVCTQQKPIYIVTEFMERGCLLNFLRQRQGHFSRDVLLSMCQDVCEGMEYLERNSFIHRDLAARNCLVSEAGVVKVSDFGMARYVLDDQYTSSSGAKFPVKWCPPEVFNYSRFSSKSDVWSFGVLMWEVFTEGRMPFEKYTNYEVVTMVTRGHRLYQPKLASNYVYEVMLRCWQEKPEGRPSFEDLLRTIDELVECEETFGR
UniProt P43403: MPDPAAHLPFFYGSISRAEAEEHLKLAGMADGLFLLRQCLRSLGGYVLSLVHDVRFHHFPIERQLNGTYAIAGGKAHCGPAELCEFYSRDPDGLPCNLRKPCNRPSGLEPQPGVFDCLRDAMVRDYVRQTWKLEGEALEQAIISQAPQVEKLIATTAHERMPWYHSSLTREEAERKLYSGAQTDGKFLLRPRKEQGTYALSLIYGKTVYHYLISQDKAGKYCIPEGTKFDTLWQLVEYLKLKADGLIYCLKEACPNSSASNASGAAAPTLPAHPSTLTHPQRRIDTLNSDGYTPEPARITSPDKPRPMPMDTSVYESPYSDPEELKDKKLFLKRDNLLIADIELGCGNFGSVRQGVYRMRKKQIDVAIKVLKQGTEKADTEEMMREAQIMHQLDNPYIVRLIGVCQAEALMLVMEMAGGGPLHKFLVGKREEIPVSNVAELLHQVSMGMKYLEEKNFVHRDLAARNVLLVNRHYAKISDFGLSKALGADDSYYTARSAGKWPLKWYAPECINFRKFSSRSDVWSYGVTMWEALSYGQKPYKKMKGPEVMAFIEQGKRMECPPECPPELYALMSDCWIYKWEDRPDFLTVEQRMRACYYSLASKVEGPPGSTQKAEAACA
UniProt P31749: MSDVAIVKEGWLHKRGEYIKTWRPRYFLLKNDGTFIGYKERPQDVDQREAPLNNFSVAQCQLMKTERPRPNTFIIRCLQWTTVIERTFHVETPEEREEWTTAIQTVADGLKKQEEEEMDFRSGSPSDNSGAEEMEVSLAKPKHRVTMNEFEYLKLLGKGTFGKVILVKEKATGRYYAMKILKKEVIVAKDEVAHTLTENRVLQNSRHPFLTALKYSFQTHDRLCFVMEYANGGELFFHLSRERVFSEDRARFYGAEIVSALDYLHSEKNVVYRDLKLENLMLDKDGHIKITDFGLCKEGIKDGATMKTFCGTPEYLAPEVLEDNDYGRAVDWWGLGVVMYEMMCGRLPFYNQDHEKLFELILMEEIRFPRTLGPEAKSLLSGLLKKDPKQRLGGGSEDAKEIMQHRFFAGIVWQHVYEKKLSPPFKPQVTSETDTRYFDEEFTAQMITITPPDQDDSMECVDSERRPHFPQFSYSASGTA

Experiments:
Conditions in all cases: K562; 2-18 h
[1] = target: RET (UniProt P07949); test: kinase-Nluc reporter destabilization hit call (1 = scored as downregulated) (binary); higher = compound decreases kinase abundance
[2] = target: RET_M918T (clone: RET_mut) (UniProt P07949); test: as above
[3] = target: RIOK1 (UniProt Q9BRS2); test: as above
[4] = target: RIPK1 (UniProt Q13546); test: as above
[5] = target: RIPK2 (UniProt O43353); test: as above
[6] = target: ROR2 (UniProt Q01974); test: as above
[7] = target: RPS6KA1 (UniProt Q15418); test: as above
[8] = target: SPHK1 (UniProt Q9NYA1); test: as above
[9] = target: SRC (UniProt P12931); test: as above
[10] = target: STK24 (UniProt Q9Y6E0); test: as above
[11] = target: STK38 (UniProt Q15208); test: as above
[12] = target: SYK (UniProt P43405); test: as above
[13] = target: TEC (UniProt P42680); test: as above
[14] = target: TYK2 (UniProt P29597); test: as above
[15] = target: ULK3 (UniProt Q6PHR2); test: as above
[16] = target: YES1 (UniProt P07947); test: as above
[17] = target: ZAK (UniProt Q9NYL2); test: as above
[18] = target: ZAP70 (UniProt P43403); test: as above
[19] = target: ABL1 (UniProt P00519); test: number of time points (of 5) at which kinase-Nluc abundance scored as decreased, DMSO-normalised (count); higher = more persistent destabilization
[20] = target: AKT1 (UniProt P31749); test: as above

CCN(CC)CCCC(C)Nc1nc(C)cc(Nc2ccc3nc(C)cc(N)c3c2)n1 (stereo not given) (10 µM)
inactive: kinase-Nluc reporter destabilization hit call [1] 0 | kinase-Nluc reporter destabilization hit call [2] 0 | kinase-Nluc reporter destabilization hit call [3] 0 | kinase-Nluc reporter destabilization hit call [4] 0 | kinase-Nluc reporter destabilization hit call [5] 0 | kinase-Nluc reporter destabilization hit call [6] 0 | kinase-Nluc reporter destabilization hit call [7] 0 | kinase-Nluc reporter destabilization hit call [8] 0 | kinase-Nluc reporter destabilization hit call [9] 0 | kinase-Nluc reporter destabilization hit call [10] 0 | kinase-Nluc reporter destabilization hit call [11] 0 | kinase-Nluc reporter destabilization hit call [12] 0 | kinase-Nluc reporter destabilization hit call [13] 0 | kinase-Nluc reporter destabilization hit call [14] 0 | kinase-Nluc reporter destabilization hit call [15] 0 | kinase-Nluc reporter destabilization hit call [16] 0 | kinase-Nluc reporter destabilization hit call [17] 0 | kinase-Nluc reporter destabilization hit call [18] 0
0: number of time points [19] | number of time points [20]

C[C@@H](Nc1ncnc2[nH]c(-c3ccc(O)cc3)cc12)c1ccccc1 (2.5 µM)
inactive: kinase-Nluc reporter destabilization hit call [1] 0 | kinase-Nluc reporter destabilization hit call [2] 0 | kinase-Nluc reporter destabilization hit call [3] 0 | kinase-Nluc reporter destabilization hit call [4] 0 | kinase-Nluc reporter destabilization hit call [5] 0 | kinase-Nluc reporter destabilization hit call [6] 0 | kinase-Nluc reporter destabilization hit call [7] 0 | kinase-Nluc reporter destabilization hit call [8] 0 | kinase-Nluc reporter destabilization hit call [9] 0 | kinase-Nluc reporter destabilization hit call [10] 0 | kinase-Nluc reporter destabilization hit call [11] 0 | kinase-Nluc reporter destabilization hit call [12] 0 | kinase-Nluc reporter destabilization hit call [13] 0 | kinase-Nluc reporter destabilization hit call [14] 0 | kinase-Nluc reporter destabilization hit call [15] 0 | kinase-Nluc reporter destabilization hit call [16] 0 | kinase-Nluc reporter destabilization hit call [17] 0 | kinase-Nluc reporter destabilization hit call [18] 0
0: number of time points [19] | number of time points [20]

NS(=O)(=O)c1ccc(Nc2nc(-c3cccc(-c4ccccc4)c3)c3[nH]cnc3n2)cc1 (10 µM)
0: number of time points [19] | number of time points [20]
inactive: kinase-Nluc reporter destabilization hit call [1] 0 | kinase-Nluc reporter destabilization hit call [2] 0 | kinase-Nluc reporter destabilization hit call [3] 0 | kinase-Nluc reporter destabilization hit call [4] 0 | kinase-Nluc reporter destabilization hit call [5] 0 | kinase-Nluc reporter destabilization hit call [6] 0 | kinase-Nluc reporter destabilization hit call [7] 0 | kinase-Nluc reporter destabilization hit call [8] 0 | kinase-Nluc reporter destabilization hit call [9] 0 | kinase-Nluc reporter destabilization hit call [10] 0 | kinase-Nluc reporter destabilization hit call [11] 0 | kinase-Nluc reporter destabilization hit call [12] 0 | kinase-Nluc reporter destabilization hit call [13] 0 | kinase-Nluc reporter destabilization hit call [14] 0 | kinase-Nluc reporter destabilization hit call [15] 0 | kinase-Nluc reporter destabilization hit call [16] 0 | kinase-Nluc reporter destabilization hit call [17] 0 | kinase-Nluc reporter destabilization hit call [18] 0

Cc1cc(C)cc(NC(N)=Nc2ccccc2C(F)(F)F)c1 (10 µM)
0: number of time points [19] | number of time points [20]
inactive: kinase-Nluc reporter destabilization hit call [1] 0 | kinase-Nluc reporter destabilization hit call [2] 0 | kinase-Nluc reporter destabilization hit call [3] 0 | kinase-Nluc reporter destabilization hit call [4] 0 | kinase-Nluc reporter destabilization hit call [5] 0 | kinase-Nluc reporter destabilization hit call [6] 0 | kinase-Nluc reporter destabilization hit call [7] 0 | kinase-Nluc reporter destabilization hit call [8] 0 | kinase-Nluc reporter destabilization hit call [9] 0 | kinase-Nluc reporter destabilization hit call [10] 0 | kinase-Nluc reporter destabilization hit call [11] 0 | kinase-Nluc reporter destabilization hit call [12] 0 | kinase-Nluc reporter destabilization hit call [13] 0 | kinase-Nluc reporter destabilization hit call [14] 0 | kinase-Nluc reporter destabilization hit call [15] 0 | kinase-Nluc reporter destabilization hit call [16] 0 | kinase-Nluc reporter destabilization hit call [17] 0 | kinase-Nluc reporter destabilization hit call [18] 0

NC(=O)c1ccc(N(C(N)=O)c2c(F)cccc2F)nc1-c1ccc(F)cc1F (10 µM)
0: number of time points [19] | number of time points [20]
inactive: kinase-Nluc reporter destabilization hit call [1] 0 | kinase-Nluc reporter destabilization hit call [2] 0 | kinase-Nluc reporter destabilization hit call [3] 0 | kinase-Nluc reporter destabilization hit call [4] 0 | kinase-Nluc reporter destabilization hit call [5] 0 | kinase-Nluc reporter destabilization hit call [6] 0 | kinase-Nluc reporter destabilization hit call [7] 0 | kinase-Nluc reporter destabilization hit call [8] 0 | kinase-Nluc reporter destabilization hit call [9] 0 | kinase-Nluc reporter destabilization hit call [10] 0 | kinase-Nluc reporter destabilization hit call [11] 0 | kinase-Nluc reporter destabilization hit call [12] 0 | kinase-Nluc reporter destabilization hit call [13] 0 | kinase-Nluc reporter destabilization hit call [14] 0 | kinase-Nluc reporter destabilization hit call [15] 0 | kinase-Nluc reporter destabilization hit call [16] 0 | kinase-Nluc reporter destabilization hit call [17] 0 | kinase-Nluc reporter destabilization hit call [18] 0

NCCOc1ccc(Cl)cc1C(=O)Nc1ccc([N+](=O)[O-])cc1Cl [HJC0152 hydrochloride] (2 µM)
inactive: kinase-Nluc reporter destabilization hit call [1] 0 | kinase-Nluc reporter destabilization hit call [2] 0 | kinase-Nluc reporter destabilization hit call [3] 0 | kinase-Nluc reporter destabilization hit call [4] 0 | kinase-Nluc reporter destabilization hit call [5] 0 | kinase-Nluc reporter destabilization hit call [6] 0 | kinase-Nluc reporter destabilization hit call [7] 0 | kinase-Nluc reporter destabilization hit call [8] 0 | kinase-Nluc reporter destabilization hit call [9] 0 | kinase-Nluc reporter destabilization hit call [10] 0 | kinase-Nluc reporter destabilization hit call [11] 0 | kinase-Nluc reporter destabilization hit call [12] 0 | kinase-Nluc reporter destabilization hit call [13] 0 | kinase-Nluc reporter destabilization hit call [14] 0 | kinase-Nluc reporter destabilization hit call [15] 0 | kinase-Nluc reporter destabilization hit call [16] 0 | kinase-Nluc reporter destabilization hit call [17] 0 | kinase-Nluc reporter destabilization hit call [18] 0
0: number of time points [19] | number of time points [20]

CC(C)n1ncnc1-c1cn2c(n1)-c1ccc(O[C@@H](C)C(N)=O)cc1OCC2 (10 µM)
inactive: kinase-Nluc reporter destabilization hit call [1] 0 | kinase-Nluc reporter destabilization hit call [2] 0 | kinase-Nluc reporter destabilization hit call [3] 0 | kinase-Nluc reporter destabilization hit call [4] 0 | kinase-Nluc reporter destabilization hit call [5] 0 | kinase-Nluc reporter destabilization hit call [6] 0 | kinase-Nluc reporter destabilization hit call [7] 0 | kinase-Nluc reporter destabilization hit call [8] 0 | kinase-Nluc reporter destabilization hit call [9] 0 | kinase-Nluc reporter destabilization hit call [10] 0 | kinase-Nluc reporter destabilization hit call [11] 0 | kinase-Nluc reporter destabilization hit call [12] 0 | kinase-Nluc reporter destabilization hit call [13] 0 | kinase-Nluc reporter destabilization hit call [14] 0 | kinase-Nluc reporter destabilization hit call [15] 0 | kinase-Nluc reporter destabilization hit call [16] 0 | kinase-Nluc reporter destabilization hit call [17] 0 | kinase-Nluc reporter destabilization hit call [18] 0
0: number of time points [19] | number of time points [20]

NCC1CCC(CNc2nc(NCc3ccccc3OC(F)(F)F)ncc2[N+](=O)[O-])CC1 (stereo not given) [PKC-theta inhibitor] (10 µM)
5: number of time points [19]
active: kinase-Nluc reporter destabilization hit call [14] 1
0: number of time points [20]
inactive: kinase-Nluc reporter destabilization hit call [1] 0 | kinase-Nluc reporter destabilization hit call [2] 0 | kinase-Nluc reporter destabilization hit call [3] 0 | kinase-Nluc reporter destabilization hit call [4] 0 | kinase-Nluc reporter destabilization hit call [5] 0 | kinase-Nluc reporter destabilization hit call [6] 0 | kinase-Nluc reporter destabilization hit call [7] 0 | kinase-Nluc reporter destabilization hit call [8] 0 | kinase-Nluc reporter destabilization hit call [9] 0 | kinase-Nluc reporter destabilization hit call [10] 0 | kinase-Nluc reporter destabilization hit call [11] 0 | kinase-Nluc reporter destabilization hit call [12] 0 | kinase-Nluc reporter destabilization hit call [13] 0 | kinase-Nluc reporter destabilization hit call [15] 0 | kinase-Nluc reporter destabilization hit call [16] 0 | kinase-Nluc reporter destabilization hit call [17] 0 | kinase-Nluc reporter destabilization hit call [18] 0

N#C/C(=C\c1ccc(O)c(O)c1)C(=O)O [Tyrphostin AG30] (10 µM)
0: number of time points [19] | number of time points [20]
inactive: kinase-Nluc reporter destabilization hit call [1] 0 | kinase-Nluc reporter destabilization hit call [2] 0 | kinase-Nluc reporter destabilization hit call [3] 0 | kinase-Nluc reporter destabilization hit call [4] 0 | kinase-Nluc reporter destabilization hit call [5] 0 | kinase-Nluc reporter destabilization hit call [6] 0 | kinase-Nluc reporter destabilization hit call [7] 0 | kinase-Nluc reporter destabilization hit call [8] 0 | kinase-Nluc reporter destabilization hit call [9] 0 | kinase-Nluc reporter destabilization hit call [10] 0 | kinase-Nluc reporter destabilization hit call [11] 0 | kinase-Nluc reporter destabilization hit call [12] 0 | kinase-Nluc reporter destabilization hit call [13] 0 | kinase-Nluc reporter destabilization hit call [14] 0 | kinase-Nluc reporter destabilization hit call [15] 0 | kinase-Nluc reporter destabilization hit call [16] 0 | kinase-Nluc reporter destabilization hit call [17] 0 | kinase-Nluc reporter destabilization hit call [18] 0
